Results reported in PubChem BioAssay AID540256 (National Center for Advancing Translational Sciences (NCATS), 2011).
Several values for one entry are separate records, joined by “and”; a condition that tells them apart may be missing. Equal entries are not always repeated. Screen size: about 300,000 compounds; about 3,700 (1.2%) were called active. Inconclusive results, whose numbers are uncertain, are shown with a selection of clear calls. The call rests on the fitted dose curve; tested in HEK293 cells. Potencies beside an inconclusive call are fits to weak or partial responses and may not hold up.

Assay: qHTS for Inhibitors of binding or entry into cells for Lassa Virus; further: nearly all actives have a fitted effect of over 50% in size
Settings: Lassa virus pseudotype entry inhibition, cell reporter; activity change, negative = inhibition: at 37.9 µM (top of the series) unless noted
On the % scale 0 is the no-effect control and ±100 the full control effect; potency means the concentration at half of the fitted maximal effect.

With `CCCCCCCCCCSc1n[nH]c(N)n1` as the compound, how does the “activity change, negative = inhibition” value read?
The value was inactive: -19.8%.

With `COc1ccc(OC)c(S(=O)(=O)N2CCC(C(=O)Nc3cc(C)ccc3C)CC2)c1` as the compound, how does the Potency read?
The Potency was inconclusive: 29.1 µM [inhibitor, single point].

Which Potency does the source give for `O=C(NCCC1=CCCCC1)C1CCN(S(=O)(=O)c2cnc[nH]2)CC1` here?
Its Potency is inconclusive: 0.164 µM [inhibitor, full curve, poor fit].

Which “activity change, negative = inhibition” value does the source give for `COc1cc(OC)c(-c2nn3c(C4CCCCC4)nnc3s2)cc1OC` here?
Its value is inactive: -5.21%.

With `CC(=O)c1c(C)[nH]c(C(=O)Nc2cccc3ccccc23)c1C` as the compound, how does the “activity change, negative = inhibition” value read?
The value was inactive: -13.2% [at 46.1 µM].

For `Cc1onc(-c2ccccc2Cl)c1C(=O)Nc1ccccc1C(=O)NC(C)C`, which Potency is on record?
The Potency was inconclusive: 29.1 µM [inhibitor, single point].

For `O=C(c1ccc2c(c1)N(Cc1cccc(Cl)c1)C(=O)c1ccccc1S2(=O)=O)N1CCCCCC1`, which Potency is on record?
The Potency was inconclusive: 35.5 µM [inhibitor, partial curve, poor fit].

Which “activity change, negative = inhibition” value does the source give for `Cc1cccc(CCNC(=O)c2nn(C)c3c2CSc2ccccc2-3)c1` here?
The value was inactive: 8.15% [at 46.1 µM].

For `Cc1ccc(NC(=O)C(C)OC(=O)/C=C/c2ccccc2)cc1` (centres undefined), which Potency is on record?
Its Potency is inconclusive: 35.5 µM [inhibitor, single point].

For `COc1ccc(NC(=O)/C(C#N)=C/c2ccc(Br)o2)cc1`, which Potency is on record?
The Potency was inconclusive: 20.6 µM [activator, single point].

For `CC(=O)N1N=C(c2ccc([N+](=O)[O-])cc2)CC1c1ccccc1Cl` (centres undefined), which Potency is on record?
Its Potency is inconclusive: 11.2 µM [inhibitor, partial curve].

Which “activity change, negative = inhibition” value does the source give for `CC(C)OC(=O)CCCCCN1C(=O)CSC1=S` here?
Its value is inactive: 2.94%.

With `COC(=O)c1c(C)nn(-c2ccccc2)c1-n1cccc1` as the compound, how does the Potency read?
The Potency was inconclusive: 29.1 µM [inhibitor, single point].

Which Potency does the source give for `O=C(CSc1oc(-c2ccc(F)cc2)nc1S(=O)(=O)c1ccc(Cl)cc1)c1ccccc1` here?
Its Potency is inconclusive: 22.4 µM [inhibitor, partial curve, poor fit].

Which Potency does the source give for `COc1cc(CN(C)CC2CCCN(CCc3cccc(C(F)(F)F)c3)C2)ccc1O` (centres undefined) here?
Its Potency is inconclusive: 17.8 µM [inhibitor, single point].

With `COc1cccc(-c2cn3c(n2)sc2cc(C(=O)NCCC4=CCCCC4)ccc23)c1` as the compound, how does the “activity change, negative = inhibition” value read?
Its value is inactive: 14.1% [at 46.1 µM].

Which Potency does the source give for `O=[N+]([O-])c1cccc(-c2ccc(CN3CCN(c4ccccc4)CC3)o2)c1` here?
The Potency was inconclusive: 5.62 µM [activator, partial curve].

For `C=C(C)Cn1c(SCC(=O)Nc2cccc(C)c2)nc2sc3c(c2c1=O)CCCC3`, which “activity change, negative = inhibition” value is on record?
The value was inactive: -2.4% [at 46.1 µM].

With `CC(C)c1ccc(NC(=O)CCNS(=O)(=O)c2ccc3c(c2)oc(=O)n3C)cc1` as the compound, how does the Potency read?
The Potency was inconclusive: 35.5 µM [inhibitor, single point].

For `CCN(CC)S(=O)(=O)c1cc(NC(=O)C(=O)c2c(-c3ccccc3)cc3ccccn23)ccc1C`, which Potency is on record?
The Potency was inconclusive: 0.92 µM [inhibitor, partial curve, poor fit].

With `CNC(=O)/C(C#N)=C/c1ccc(-c2ccc(Cl)cc2)o1` as the compound, how does the “activity change, negative = inhibition” value read?
The value was inactive: 0.267%.

Which Potency does the source give for `COc1cc(NC(=O)c2cccc(Br)c2)nc(OC)n1` here?
Its Potency is inconclusive: 8.91 µM [activator, partial curve, poor fit].

For `COc1cc(CCC(=O)Nc2cccc(C(F)(F)F)c2)cc(OC)c1OC`, which “activity change, negative = inhibition” value is on record?
Its value is inactive: 8.53%.

With `Cc1cccc(-c2nc(C)c(CCNC(=O)c3cccs3)s2)c1` as the compound, how does the Potency read?
Its Potency is inconclusive: 35.5 µM [inhibitor, single point].

For `COc1ccc(OC)c(S(=O)(=O)NCC(c2ccco2)N2CCc3ccccc32)c1` (centres undefined), which Potency is on record?
The Potency was inconclusive: 11.2 µM [inhibitor, single point].

For `CCCC(=O)Nc1ccc(NC(=S)NC(=O)c2ccccc2[N+](=O)[O-])cc1`, which Potency is on record?
The Potency was inconclusive: 35.5 µM [inhibitor, single point].

For `CCc1ccc(S(=O)(=O)N/N=C\c2cn(CC(N)=O)c3ccccc23)cc1`, which Potency is on record?
The Potency was inconclusive: 6.31 µM [activator, single point].

Which Potency does the source give for `CC1(C)Cc2c(sc(NC(=O)c3ccc4c(c3)OCCO4)c2C(N)=O)C(C)(C)N1` here?
The Potency was inconclusive: 35.5 µM [inhibitor, single point].

With `N#C/C(=C\c1ccccc1[N+](=O)[O-])C(=O)NCc1ccccc1` as the compound, how does the “activity change, negative = inhibition” value read?
The value was inactive: -0.749% [at 46.1 µM].

With `Cc1ccc(S(=O)(=O)N(C)C)cc1-n1c(SCC(=O)Nc2ccc(F)cc2Cl)nc2ccccc2c1=O` as the compound, how does the Potency read?
Its Potency is inconclusive: 2.91 µM [inhibitor, full curve].

With `O=C(Cn1c(C(F)(F)F)nc2ccccc21)N1CCCC1` as the compound, how does the Potency read?
Its Potency is inconclusive: 31.6 µM [activator, single point].

Which “activity change, negative = inhibition” value does the source give for `CCOc1cccc(N2C(=O)CC(N3CCC(C(N)=O)(N4CCCCC4)CC3)C2=O)c1` (centres undefined) here?
Its value is inactive: 12.7%.

Which “activity change, negative = inhibition” value does the source give for `CN1c2ccccc2C(C)(C)C12C=Nc1c(ccc3ccccc13)O2` (centres undefined) here?
The value was inactive: 1.8%.

Which “activity change, negative = inhibition” value does the source give for `COC(=O)c1ccc(NC(=O)C2CC(=O)N(c3ccc(C)cc3)C2)cc1` (centres undefined) here?
The value was inactive: 14.6%.

With `CC1CSc2ccccc2NC1=S` (centres undefined) as the compound, how does the “activity change, negative = inhibition” value read?
Its value is inactive: 7.88%.

For `Cc1cccc2cc(-c3nc4ccc(C(=O)O)cc4[nH]3)c(=O)oc12`, which Potency is on record?
Its Potency is inconclusive: 6.31 µM [inhibitor, partial curve, poor fit].

Which Potency does the source give for `CS(=O)(=O)CCNCc1ccc(-c2ccc3ncnc(Nc4ccc(OCc5cccc(F)c5)c(C(F)(F)F)c4)c3c2)o1` here?
Its Potency is active: 19.9 µM.

For `CCc1ccc(CNc2ncnc3onc(-c4ccc(Cl)cc4)c23)cc1`, which “activity change, negative = inhibition” value is on record?
Its value is inactive: 13.9% [at 46.1 µM].

For `O=C(/C(C=Nc1ccc(F)cc1)=C(/O)c1ccco1)C(F)(F)F`, which Potency is on record?
Its Potency is inconclusive: 35.5 µM [inhibitor, single point].

With `O=C(N/N=C/c1ccc2c(c1)OCO2)c1ccc(COCC(F)(F)C(F)F)cc1` as the compound, how does the Potency read?
Its Potency is inconclusive: 3.55 µM [inhibitor, full curve].

For `S=c1[nH]nc(-c2ccc(Cl)cc2)n1/N=C/C=C/c1ccco1`, which Potency is on record?
Its Potency is inconclusive: 7.08 µM [inhibitor, full curve, poor fit].

Which Potency does the source give for `O=C(Nc1ccccc1C(F)(F)F)c1cc(S(=O)(=O)N2CCC3(CC2)OCCO3)ccc1F` here?
Its Potency is inconclusive: 29.1 µM [inhibitor, single point].

For `Cc1cc(NC(=O)CSc2nc3c(c(=O)n(C)c(=O)n3C)n2C(C)C)no1`, which “activity change, negative = inhibition” value is on record?
The value was inactive: -23.6%.

With `COc1cc2nc(Nc3ccc(C)c(C)c3)nc(N)c2cc1OC` as the compound, how does the “activity change, negative = inhibition” value read?
Its value is inactive: 1.36% [at 46.1 µM].

Which Potency does the source give for `O=c1c2ccccc2nc(/C=C/c2ccc(F)cc2)n1-c1ccccc1O` here?
The Potency was inconclusive: 11.2 µM [inhibitor, partial curve, poor fit].

Which Potency does the source give for `O=C(CCN1CCOCC1)N1CCc2c([nH]c3ccccc23)C1c1cccc(Cl)c1` (centres undefined) here?
Its Potency is inconclusive: 10 µM [inhibitor, partial curve].

Which “activity change, negative = inhibition” value does the source give for `COc1cccc(C2=NOC(C(=O)Nc3ccc(C(C)=O)cc3)C2)c1` (centres undefined) here?
The value was inactive: 8.08%.

With `Cc1nc2ccn(Cc3cccs3)c(=O)c2cc1C(=O)NCc1ccc(Cl)cc1` as the compound, how does the Potency read?
The Potency was inconclusive: 11.2 µM [inhibitor, partial curve, poor fit].

Which “activity change, negative = inhibition” value does the source give for `COc1cc2[nH]c(=S)nc(NCCc3ccc(C)cc3)c2cc1OC` here?
Its value is inactive: -12.3%.

For `CS(=O)(=O)N1CCN(c2ccc(NC(=O)CSc3ccc(Cl)cc3)cc2)CC1`, which “activity change, negative = inhibition” value is on record?
Its value is inactive: -1.24%.

With `CC(C)NC(=O)C1=NN(c2ccccc2)C(=O)CC1` as the compound, how does the Potency read?
Its Potency is inconclusive: 15.8 µM [activator, single point].

With `CCOC(=O)c1ccc(NC(=O)Cn2cc(C(=O)c3cccs3)c3ccccc32)cc1` as the compound, how does the Potency read?
Its Potency is inconclusive: 35.5 µM [inhibitor, single point].

Which “activity change, negative = inhibition” value does the source give for `CCCc1nnc(NC(=O)C2CCN(C(=O)C3CC(=O)N(c4ccc(C)cc4)C3)CC2)s1` (centres undefined) here?
Its value is inactive: -5.6%.

With `CCOc1ccc(S(=O)(=O)N(CC(=O)N/N=C/c2ccc(-c3ccc([N+](=O)[O-])cc3)o2)c2ccccc2)cc1` as the compound, how does the Potency read?
The Potency was inconclusive: 5.01 µM [inhibitor, full curve, poor fit].

With `O=C(CSc1nnnn1-c1ccc(F)cc1)Nc1ccccc1F` as the compound, how does the “activity change, negative = inhibition” value read?
Its value is inactive: -0.666%.

Which Potency does the source give for `Cc1ccnc(NC(=S)NC(=O)c2ccco2)c1` here?
Its Potency is inconclusive: 0.447 µM [activator, partial curve, poor fit].

For `Cc1cccc(OC(=O)c2nc(SCc3ccccc3F)ncc2Cl)c1`, which “activity change, negative = inhibition” value is on record?
Its value is inactive: 19.4% [at 46.1 µM].

For `COc1cc(/C=N/NC(=O)COc2cccc(F)c2)ccc1OS(=O)(=O)c1ccc(C)cc1`, which Potency is on record?
Its Potency is inconclusive: 23.1 µM [inhibitor, single point].

For `COc1ccc(C(=O)NN=C2CCCC2)c(OC)c1`, which “activity change, negative = inhibition” value is on record?
Its value is inactive: 16.4% [at 46.1 µM].

For `Cc1nn(C)c(C(=O)NCc2ccc(Cl)cc2)c1Cl`, which “activity change, negative = inhibition” value is on record?
Its value is inactive: -7.85%.

Which “activity change, negative = inhibition” value does the source give for `CCCCn1c(SCC(=O)OCC)nnc1-c1ccoc1C` here?
Its value is inactive: -0.205%.

Which Potency does the source give for `O=c1c2c(nc3c(-c4ccc(Cl)cc4)c[nH]n13)CCC2` here?
The Potency was inconclusive: 8.91 µM [inhibitor, partial curve, poor fit].

Which Potency does the source give for `COc1ccc(NC(=O)C[C@H]2C(=O)N(Cc3ccccc3)C[C@@H]2Cc2ccccc2)cc1` here?
The Potency was inconclusive: 0.004 µM [inhibitor, full curve, poor fit].

With `O=C(c1ccco1)N1CCC(c2nc3c(nnn3Cc3c(Cl)cccc3Cl)c(=O)[nH]2)CC1` as the compound, how does the “activity change, negative = inhibition” value read?
Its value is inactive: -15.4% [at 46.1 µM].

With `Cc1ccc(/C=C/c2nc3ccccc3n2S(=O)(=O)c2cccc(Cl)c2)cc1` as the compound, how does the Potency read?
Its Potency is inconclusive: 8.91 µM [inhibitor, single point].

With `COc1cc2c(cc1OC)n(CC(=O)Nc1ccccc1)c(=O)n1nc(-c3ccccc3)nc21` as the compound, how does the “activity change, negative = inhibition” value read?
Its value is inactive: -5.49% [at 46.1 µM].

With `Cc1ccc2c(Cl)cc(Cl)c(OCC(=O)OCC(=O)Nc3ccc(C#N)cc3)c2n1` as the compound, how does the Potency read?
Its Potency is inconclusive: 3.98 µM [activator, partial curve].

With `O=c1oc2c(O)c(O)cc3c(=O)oc4c(O)c(O)cc1c4c23` as the compound, how does the Potency read?
The Potency was “inactive and inconclusive: 1.12 µM [activator, partial curve, poor fit]”.

Which Potency does the source give for `CCOC(=O)c1cc(CC)sc1NC(=O)CN1CCN(C(=O)C2CCCO2)CC1` (centres undefined) here?
Its Potency is inconclusive: 35.5 µM [inhibitor, single point].
